In paper PMC7819943, “Rice protein-binding microarrays: a tool to detect cis-acting elements near promoter regions in rice”:
This is one part of the list.

Target: T1, OsSMF1 (Oryza sativa, UniProt Q6ZLB0 1-436)
T1 sequence: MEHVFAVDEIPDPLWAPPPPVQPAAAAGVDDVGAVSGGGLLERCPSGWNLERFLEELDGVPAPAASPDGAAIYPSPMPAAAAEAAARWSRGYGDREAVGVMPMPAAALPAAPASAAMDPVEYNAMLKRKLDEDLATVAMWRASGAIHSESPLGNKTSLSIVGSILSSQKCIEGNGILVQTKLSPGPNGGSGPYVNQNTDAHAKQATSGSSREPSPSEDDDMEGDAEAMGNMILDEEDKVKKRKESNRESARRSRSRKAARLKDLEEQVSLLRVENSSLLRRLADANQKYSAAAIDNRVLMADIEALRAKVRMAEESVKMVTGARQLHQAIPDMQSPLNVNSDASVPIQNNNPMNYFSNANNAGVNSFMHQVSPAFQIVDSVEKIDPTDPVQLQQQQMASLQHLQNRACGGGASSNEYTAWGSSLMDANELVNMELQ
Experiment: protein-binding microarray (RPBM); PBS, 2% BSA, 51.3 ng/ul salmon testes DNA, 50 uM zinc acetate, 200 nM TF, 25 C, 1 h; high values mean tight binding
Settings: protein: recombinant; tags: N-terminal polyhistidine and DsRed monomer fusion (pET32a); chain copies: 2; label: CyDye5-dUTP incorporated in the synthesized complementary strand; 3' TTTTT single-stranded linker to array surface; dsDNA, one strand shown
How it was run: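 Transcription factors were each fused at the N-terminus to a polyhistidine tag plus DsRed and expressed in E. coli BL21-CodonPlus before Ni–NTA purification. Binding to a double-stranded custom Agilent array was carried out with 200 nM protein at 25 °C for 1 h in PBS, 2% BSA, salmon testes DNA and 50 µM zinc acetate. The binding signal is per-feature fluorescence intensity, in arbitrary units, on an Axon 4000B scanner.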

Sequence	binding signal
CCTTAGACTTTGTATAGTTTATAGTTATGTCACTGACACGCGGAGTCACCTAGTGCAG	3740 fluorescence intensity (a.u.)
ATACATATGGTCGGCGGACTCGGAGCCTGATCTGTCAGAACGGAGTCACCTAGTGCAG	4420 fluorescence intensity (a.u.)
GTGCCCGCCCACAAAATCCCGCGTCGATTATATTCTCCATCGGAGTCACCTAGTGCAG	3460 fluorescence intensity (a.u.)
ATCACTGATCTACTCCAAATGATGGGTCATGCTAGCAGGCCGGAGTCACCTAGTGCAG	3670 fluorescence intensity (a.u.)
TAGAAAATAATGATGATGATGATGGCAATAGGTTAACAATCGGAGTCACCTAGTGCAG	3510 fluorescence intensity (a.u.)
GCTGCTGCGTGTCTGTGTGCCGCGCCACCTATGCACCTCGCGGAGTCACCTAGTGCAG	3670 fluorescence intensity (a.u.)
GTCTCATGAGTCATGGAGGCCATTACAGGTTTTCCTCTCCCGGAGTCACCTAGTGCAG	8080 fluorescence intensity (a.u.)
AAACTAAATACTACGAGGTCCCACCTCATCATAGGTATGCCGGAGTCACCTAGTGCAG	3460 fluorescence intensity (a.u.)
GTGTACTCTTGTTTAGTTGTCAGGTCGATTTTGAGAACATCGGAGTCACCTAGTGCAG	3140 fluorescence intensity (a.u.)
AACGTTACCACCGCGTTTTGGTGTCATTTTCAATGCTGCTCGGAGTCACCTAGTGCAG	3170 fluorescence intensity (a.u.)
AGCAGCCAGCTGTAGCACGGACTCCAAGACATAACATGTGCGGAGTCACCTAGTGCAG	3780 fluorescence intensity (a.u.)
GTGGTAGGTTTTGGTTTGGATGATTGGTAGTTAGCTCGTGCGGAGTCACCTAGTGCAG	3260 fluorescence intensity (a.u.)
TCCAGCTCTGAATTTCACTCTGCATGCATAAGTTGCAGGACGGAGTCACCTAGTGCAG	48100 fluorescence intensity (a.u.)
TGTCACTGCAAGGATGTAGAAAGCTGGAGCATGTGGAGTTCGGAGTCACCTAGTGCAG	3140 fluorescence intensity (a.u.)
TTCTGCACTTCTGCTTCACCCCGGCTGACATTGCACACCGCGGAGTCACCTAGTGCAG	3760 fluorescence intensity (a.u.)
ATTGTAAAACGGAGGAAGTACTATCCAAGTCATCAACCGACGGAGTCACCTAGTGCAG	6870 fluorescence intensity (a.u.)
GGATGCATACGTAGACACATTTCGTCTGATTTAATCTTATCGGAGTCACCTAGTGCAG	3260 fluorescence intensity (a.u.)
ACCAAAATCCGTAGGTCGTATCGTAGGGAGGGCCTGCGCCCGGAGTCACCTAGTGCAG	24700 fluorescence intensity (a.u.)
TCGCAACTTCTTACTTGCTGAGAGAATCATGCGGTCCGCACGGAGTCACCTAGTGCAG	3640 fluorescence intensity (a.u.)
CTGAAGATCGCACTACGCATTCGTGTTGTTTCTCTAATGCCGGAGTCACCTAGTGCAG	3150 fluorescence intensity (a.u.)
ATAAATCTGGACATGCTCCCTGTCCAGATTTATAGTACTACGGAGTCACCTAGTGCAG	3370 fluorescence intensity (a.u.)

Sequence	binding signal
CCCACTTCACTAGCTACTCCAGTCAGCTAATCCCTTCCCGCGGAGTCACCTAGTGCAG	3160 fluorescence intensity (a.u.)
AGTGGTGTCAAACCTGATGAAATTACCATGCTGAGTGTAACGGAGTCACCTAGTGCAG	3950 fluorescence intensity (a.u.)
TTAAAGGTTGGGACTGCCCTAATAACCTCTCACGCCACGTCGGAGTCACCTAGTGCAG	7510 fluorescence intensity (a.u.)
CGCCTCCATCCCTCCCATTCCCGAACACGTCCCCAAGGTACGGAGTCACCTAGTGCAG	3330 fluorescence intensity (a.u.)
AGTGTTGGAGTTGGAGTTGTTATGACTTATGGATTTACCTCGGAGTCACCTAGTGCAG	3320 fluorescence intensity (a.u.)
TCTCCTCCCCACCCGATGCACGCCATGCCAAGAGAGAAGACGGAGTCACCTAGTGCAG	3320 fluorescence intensity (a.u.)
CCTCCGCCTCGTCAACCCGCGCTTGCCCTCCCACGCTGCCCGGAGTCACCTAGTGCAG	3350 fluorescence intensity (a.u.)
ACCCGTTCTTTCTCACGCTTGTGGCGTGCATTGTCAATCACGGAGTCACCTAGTGCAG	3870 fluorescence intensity (a.u.)
ATATTCATATGACATGACACGTAAATGTCACGTAGGATATCGGAGTCACCTAGTGCAG	3700 fluorescence intensity (a.u.)
AATCTCTACAATTATAGTATTCTCTCCATTCTAAAATACACGGAGTCACCTAGTGCAG	5680 fluorescence intensity (a.u.)
TCAGATGACATGAGTCATACACTGGTTGTTGCCGCGGATACGGAGTCACCTAGTGCAG	10100 fluorescence intensity (a.u.)
CCAACCCCGATAATAACTCTGTCATCGGATTCAAGGACAACGGAGTCACCTAGTGCAG	4030 fluorescence intensity (a.u.)
CCAGCATCATATTTCAAGCTGAGCTGTAGTTCTCATTACTCGGAGTCACCTAGTGCAG	4640 fluorescence intensity (a.u.)
CCATGATTAGTCCTAAGTGCTACGGTAATCCACATGTGCTCGGAGTCACCTAGTGCAG	3240 fluorescence intensity (a.u.)
CCATGCCAAGATACAGGACAGCATCACAACGCATCATCGCCGGAGTCACCTAGTGCAG	3610 fluorescence intensity (a.u.)
ACTCCCCTGACAGAGTGGCCCCACCCAGGCGCGTACCTCCCGGAGTCACCTAGTGCAG	3240 fluorescence intensity (a.u.)
GCCGGCTGTGTACGACGCGTGGCCTCGACGTGGCAGCGCCCGGAGTCACCTAGTGCAG	16000 fluorescence intensity (a.u.)
CGTCCGTGGCGTCGTCCGCCGCCGCCGCCGCCGCCGCCAGCGGAGTCACCTAGTGCAG	3340 fluorescence intensity (a.u.)
CCACATGACAGCCACCTCCGAATGGCGCCTGTCCCTACATCGGAGTCACCTAGTGCAG	3430 fluorescence intensity (a.u.)
CCCTCCCGAACAGTTTCTCTGAGGTGGTATTTTACGTGTACGGAGTCACCTAGTGCAG	3580 fluorescence intensity (a.u.)
GCAGAACGAACAGGTTTGCTTACCACACAGCCAGCTCAGACGGAGTCACCTAGTGCAG	4450 fluorescence intensity (a.u.)

Looked up above:
Value for CCATGCCAAGATACAGGACAGCATCACAACGCATCATCGCCGGAGTCACCTAGTGCAG under binding signal: 3610 fluorescence intensity (a.u.)
Value for CCAGCATCATATTTCAAGCTGAGCTGTAGTTCTCATTACTCGGAGTCACCTAGTGCAG under binding signal: 4640 fluorescence intensity (a.u.)
Value for GCCGGCTGTGTACGACGCGTGGCCTCGACGTGGCAGCGCCCGGAGTCACCTAGTGCAG under binding signal: 16000 fluorescence intensity (a.u.)
Value for CCTCCGCCTCGTCAACCCGCGCTTGCCCTCCCACGCTGCCCGGAGTCACCTAGTGCAG under binding signal: 3350 fluorescence intensity (a.u.)
Value for CCCACTTCACTAGCTACTCCAGTCAGCTAATCCCTTCCCGCGGAGTCACCTAGTGCAG under binding signal: 3160 fluorescence intensity (a.u.)

Next entries follow:

Sequence	binding signal
AACGGAGGCCCCATCTGTCAGGCCACGTGGAATCACCCACCGGAGTCACCTAGTGCAG	16300 fluorescence intensity (a.u.)
GTAAGTTGAATGATGTCATATATTTAATTTTACGGTAAGTCGGAGTCACCTAGTGCAG	6940 fluorescence intensity (a.u.)
CGTCGTTTCGTTTAGCATATGTTGTCACGGTACATGTATGCGGAGTCACCTAGTGCAG	4410 fluorescence intensity (a.u.)
GCCGGCGACGCTGCCGCCGTCACCACTACCGCTGCCGCGGCGGAGTCACCTAGTGCAG	4140 fluorescence intensity (a.u.)
AGGCTGGAGACATATGACCAAGCAAAGAAGGTACTTAACACGGAGTCACCTAGTGCAG	3250 fluorescence intensity (a.u.)
TGCTGGACTGGTTAGCACTCGTGTCGATGACAACGAGTGGCGGAGTCACCTAGTGCAG	3860 fluorescence intensity (a.u.)
CTATTCAGCTTGTTGCGTCGTCGGTCGATCGATCCATCCACGGAGTCACCTAGTGCAG	3180 fluorescence intensity (a.u.)
CAATGTGCAGGTGGTGCCAACTTGCAACCCAACCGCGGGACGGAGTCACCTAGTGCAG	3500 fluorescence intensity (a.u.)
TTTGATGCTGCTGACTCAGCATCCGCTACGCTGAAGGGAACGGAGTCACCTAGTGCAG	18500 fluorescence intensity (a.u.)
TAATCCTTATTAAATGAGGTGTACGTGAGTAGGAAGATGGCGGAGTCACCTAGTGCAG	4000 fluorescence intensity (a.u.)
CGGAGTGGCCAGCGTGGTGACAAGCGCGACGTGGCGGCTTCGGAGTCACCTAGTGCAG	6830 fluorescence intensity (a.u.)
TAAATGACGTCAGCCAAACGGTATCACCATTCTTCAGACTCGGAGTCACCTAGTGCAG	12000 fluorescence intensity (a.u.)
CAAATGCCACCTAAGCGCCACGTCAACCCCATAGACTAGGCGGAGTCACCTAGTGCAG	34200 fluorescence intensity (a.u.)
CGTCGTGCCAGTGACAGCGTGGGCCATCGTGTTTTGGGCACGGAGTCACCTAGTGCAG	5180 fluorescence intensity (a.u.)
ATCTAGCTTCATCTTATGACATCAACAACTTTTCTGATTGCGGAGTCACCTAGTGCAG	4730 fluorescence intensity (a.u.)
TTACAGATAATTACATCACTATCGGCTGGATGAGTCTTTCCGGAGTCACCTAGTGCAG	3660 fluorescence intensity (a.u.)
CAGTAGTTGACTTGAGACGAAGATGAACACAGGCCTAATACGGAGTCACCTAGTGCAG	21600 fluorescence intensity (a.u.)
CCTGGTGGGTTGCGTGCGCGAGATGGTGGCGCTCATGGTGCGGAGTCACCTAGTGCAG	4800 fluorescence intensity (a.u.)
CTCTAGTCAACGCGCCCACGTGGACCAGTTGTTCATCGAGCGGAGTCACCTAGTGCAG	12400 fluorescence intensity (a.u.)
CACCACCCCTCGCCGCCGCAGCGCCGCCACGTCCTCGCCGCGGAGTCACCTAGTGCAG	14900 fluorescence intensity (a.u.)
CCAACCATGCCACGCTGGACTCCGACCCGACCCCGACCCGCGGAGTCACCTAGTGCAG	7380 fluorescence intensity (a.u.)

Sequence	binding signal
CACTAAACGTATCGTCGACAATTAGATACCTATGATGACTCGGAGTCACCTAGTGCAG	5080 fluorescence intensity (a.u.)
TACTAGCAGTTGTGCCATGAATATTCACCAGTCAGCATCCCGGAGTCACCTAGTGCAG	3170 fluorescence intensity (a.u.)
CATGCATCATTATACTAGTCGTCGTCATATAAATAGCGGACGGAGTCACCTAGTGCAG	3760 fluorescence intensity (a.u.)
CACCTAAGTAAATGATTTCTGAACACGCCAGCCTGATGTACGGAGTCACCTAGTGCAG	3890 fluorescence intensity (a.u.)
TTCGAGCTAGTACTAACTGCTATCGTCATGACCCGGGTGACGGAGTCACCTAGTGCAG	3810 fluorescence intensity (a.u.)
TCGAATCAACATGTTTTCATGAATTATGAGCTGTCAATGACGGAGTCACCTAGTGCAG	5640 fluorescence intensity (a.u.)
GCTCGAATTGCCACGTAAGCGCCACGTCAATGCCACGTCACGGAGTCACCTAGTGCAG	65500 fluorescence intensity (a.u.)
GCATCGCCGTCCCAGGAACTTGGACACGTCGCCTCTCGCCCGGAGTCACCTAGTGCAG	5130 fluorescence intensity (a.u.)
ATGCCCTTATGCAGTCCACTGCCACATGTTAGATCCGAATCGGAGTCACCTAGTGCAG	3800 fluorescence intensity (a.u.)
CACCGCCCACCGTCGGCCCGCGTCATCCCTCTAAGCTCAGCGGAGTCACCTAGTGCAG	7580 fluorescence intensity (a.u.)
GGCCGCCACCACCGCCGTACCCCTGCGGGTGGCCGACGATCGGAGTCACCTAGTGCAG	3220 fluorescence intensity (a.u.)
GTGTGTGTGTGTGCTGCGTGTGCGTGTGCGCGCGCGTGCCCGGAGTCACCTAGTGCAG	5210 fluorescence intensity (a.u.)
ATTAATAAATAACACGTATATAAAATATAATATGAATATTCGGAGTCACCTAGTGCAG	3950 fluorescence intensity (a.u.)
GTTTAGCCAGAATTCAGCCAGCTCACGCAACGCCAACTCACGGAGTCACCTAGTGCAG	4840 fluorescence intensity (a.u.)
AGGATGACATGTGGGTCCCACTTGTCAATGGGTCCCCATGCGGAGTCACCTAGTGCAG	4000 fluorescence intensity (a.u.)
AGGACCAAATGACATGGTACATTTGGGGAGATTTGGTTTGCGGAGTCACCTAGTGCAG	3440 fluorescence intensity (a.u.)
GCTGCGGCAGCAATGCGCATCAACCGTGGTGGCAACGACACGGAGTCACCTAGTGCAG	17600 fluorescence intensity (a.u.)
GAGAGATGGGGAGAGATGAGGAAGAAGGGTAGGGTGGAGACGGAGTCACCTAGTGCAG	4010 fluorescence intensity (a.u.)
AGAGCGATCTGATCGACCGAGTTGTGTCATGCCGTACTACCGGAGTCACCTAGTGCAG	4330 fluorescence intensity (a.u.)
TACTTATTGTTTATGAGAAATTTTAGAAATAATTGTATTTCGGAGTCACCTAGTGCAG	3260 fluorescence intensity (a.u.)
CCGAGGATATGTGTGACCCACATGTCAGTAGAACTGCTGACGGAGTCACCTAGTGCAG	3800 fluorescence intensity (a.u.)
